Results published in paper PMC10434240.
No constants are given. Whether binding was seen depends on the method and setting. In cells and extracts the contact can be indirect. These calls come from enrichment with a bait or labelling near it, and not all partners need be listed.

The chains behind the UniProt entries cited, without tags or fusion partners. Where a name states a change or a piece, a line headed by the entry shows the natural chain unless it says otherwise.
UniProt P90623: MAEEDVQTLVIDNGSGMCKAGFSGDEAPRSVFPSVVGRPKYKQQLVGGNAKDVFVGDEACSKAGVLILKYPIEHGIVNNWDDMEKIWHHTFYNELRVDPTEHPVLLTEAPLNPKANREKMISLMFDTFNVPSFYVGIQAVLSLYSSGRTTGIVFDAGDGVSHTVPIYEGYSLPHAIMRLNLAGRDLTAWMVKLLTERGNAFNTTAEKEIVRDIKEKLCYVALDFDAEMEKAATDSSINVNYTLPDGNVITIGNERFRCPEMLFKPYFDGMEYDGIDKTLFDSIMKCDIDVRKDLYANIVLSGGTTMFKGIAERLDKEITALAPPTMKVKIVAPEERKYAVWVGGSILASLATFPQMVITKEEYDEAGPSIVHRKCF
UniProt Q27088: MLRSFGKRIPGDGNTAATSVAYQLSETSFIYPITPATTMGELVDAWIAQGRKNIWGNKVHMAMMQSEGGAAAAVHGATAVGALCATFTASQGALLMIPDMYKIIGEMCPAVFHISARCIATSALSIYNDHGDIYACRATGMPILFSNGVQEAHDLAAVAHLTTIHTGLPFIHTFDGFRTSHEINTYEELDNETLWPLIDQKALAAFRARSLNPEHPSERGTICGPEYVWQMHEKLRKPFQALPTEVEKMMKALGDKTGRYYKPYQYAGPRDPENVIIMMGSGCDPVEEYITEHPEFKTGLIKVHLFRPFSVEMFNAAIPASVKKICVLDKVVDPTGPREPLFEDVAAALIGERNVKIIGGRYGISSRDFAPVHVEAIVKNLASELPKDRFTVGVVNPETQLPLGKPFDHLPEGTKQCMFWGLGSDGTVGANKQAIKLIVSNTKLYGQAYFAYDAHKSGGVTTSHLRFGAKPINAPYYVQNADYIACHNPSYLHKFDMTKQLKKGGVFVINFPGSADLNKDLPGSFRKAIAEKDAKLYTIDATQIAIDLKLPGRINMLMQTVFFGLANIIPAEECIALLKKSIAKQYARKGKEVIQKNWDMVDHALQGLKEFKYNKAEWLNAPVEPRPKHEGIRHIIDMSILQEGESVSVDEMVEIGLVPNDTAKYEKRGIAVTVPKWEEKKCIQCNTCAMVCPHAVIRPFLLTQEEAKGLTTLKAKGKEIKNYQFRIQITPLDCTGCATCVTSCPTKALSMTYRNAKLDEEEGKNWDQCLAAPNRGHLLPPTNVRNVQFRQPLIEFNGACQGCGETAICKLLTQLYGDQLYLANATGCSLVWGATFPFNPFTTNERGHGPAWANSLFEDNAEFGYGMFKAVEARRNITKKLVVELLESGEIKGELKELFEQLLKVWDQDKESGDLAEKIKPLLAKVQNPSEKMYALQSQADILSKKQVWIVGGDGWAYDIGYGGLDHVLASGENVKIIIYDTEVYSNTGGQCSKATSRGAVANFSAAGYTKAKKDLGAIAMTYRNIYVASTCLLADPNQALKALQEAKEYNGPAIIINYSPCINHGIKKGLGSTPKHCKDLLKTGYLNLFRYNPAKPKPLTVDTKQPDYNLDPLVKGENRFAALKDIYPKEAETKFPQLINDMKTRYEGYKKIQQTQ
UniProt A2ES57: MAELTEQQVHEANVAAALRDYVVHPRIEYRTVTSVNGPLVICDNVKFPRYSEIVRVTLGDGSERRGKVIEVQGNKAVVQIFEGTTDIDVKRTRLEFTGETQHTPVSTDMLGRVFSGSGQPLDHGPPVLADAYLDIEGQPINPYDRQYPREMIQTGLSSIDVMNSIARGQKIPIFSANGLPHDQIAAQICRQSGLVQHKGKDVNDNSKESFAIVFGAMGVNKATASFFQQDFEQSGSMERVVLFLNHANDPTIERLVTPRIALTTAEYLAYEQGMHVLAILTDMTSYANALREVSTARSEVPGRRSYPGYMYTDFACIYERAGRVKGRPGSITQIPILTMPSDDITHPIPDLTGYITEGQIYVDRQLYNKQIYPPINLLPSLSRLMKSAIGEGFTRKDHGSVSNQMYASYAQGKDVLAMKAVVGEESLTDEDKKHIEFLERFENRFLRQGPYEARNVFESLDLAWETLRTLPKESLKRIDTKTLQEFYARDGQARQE
UniProt A2EGW8: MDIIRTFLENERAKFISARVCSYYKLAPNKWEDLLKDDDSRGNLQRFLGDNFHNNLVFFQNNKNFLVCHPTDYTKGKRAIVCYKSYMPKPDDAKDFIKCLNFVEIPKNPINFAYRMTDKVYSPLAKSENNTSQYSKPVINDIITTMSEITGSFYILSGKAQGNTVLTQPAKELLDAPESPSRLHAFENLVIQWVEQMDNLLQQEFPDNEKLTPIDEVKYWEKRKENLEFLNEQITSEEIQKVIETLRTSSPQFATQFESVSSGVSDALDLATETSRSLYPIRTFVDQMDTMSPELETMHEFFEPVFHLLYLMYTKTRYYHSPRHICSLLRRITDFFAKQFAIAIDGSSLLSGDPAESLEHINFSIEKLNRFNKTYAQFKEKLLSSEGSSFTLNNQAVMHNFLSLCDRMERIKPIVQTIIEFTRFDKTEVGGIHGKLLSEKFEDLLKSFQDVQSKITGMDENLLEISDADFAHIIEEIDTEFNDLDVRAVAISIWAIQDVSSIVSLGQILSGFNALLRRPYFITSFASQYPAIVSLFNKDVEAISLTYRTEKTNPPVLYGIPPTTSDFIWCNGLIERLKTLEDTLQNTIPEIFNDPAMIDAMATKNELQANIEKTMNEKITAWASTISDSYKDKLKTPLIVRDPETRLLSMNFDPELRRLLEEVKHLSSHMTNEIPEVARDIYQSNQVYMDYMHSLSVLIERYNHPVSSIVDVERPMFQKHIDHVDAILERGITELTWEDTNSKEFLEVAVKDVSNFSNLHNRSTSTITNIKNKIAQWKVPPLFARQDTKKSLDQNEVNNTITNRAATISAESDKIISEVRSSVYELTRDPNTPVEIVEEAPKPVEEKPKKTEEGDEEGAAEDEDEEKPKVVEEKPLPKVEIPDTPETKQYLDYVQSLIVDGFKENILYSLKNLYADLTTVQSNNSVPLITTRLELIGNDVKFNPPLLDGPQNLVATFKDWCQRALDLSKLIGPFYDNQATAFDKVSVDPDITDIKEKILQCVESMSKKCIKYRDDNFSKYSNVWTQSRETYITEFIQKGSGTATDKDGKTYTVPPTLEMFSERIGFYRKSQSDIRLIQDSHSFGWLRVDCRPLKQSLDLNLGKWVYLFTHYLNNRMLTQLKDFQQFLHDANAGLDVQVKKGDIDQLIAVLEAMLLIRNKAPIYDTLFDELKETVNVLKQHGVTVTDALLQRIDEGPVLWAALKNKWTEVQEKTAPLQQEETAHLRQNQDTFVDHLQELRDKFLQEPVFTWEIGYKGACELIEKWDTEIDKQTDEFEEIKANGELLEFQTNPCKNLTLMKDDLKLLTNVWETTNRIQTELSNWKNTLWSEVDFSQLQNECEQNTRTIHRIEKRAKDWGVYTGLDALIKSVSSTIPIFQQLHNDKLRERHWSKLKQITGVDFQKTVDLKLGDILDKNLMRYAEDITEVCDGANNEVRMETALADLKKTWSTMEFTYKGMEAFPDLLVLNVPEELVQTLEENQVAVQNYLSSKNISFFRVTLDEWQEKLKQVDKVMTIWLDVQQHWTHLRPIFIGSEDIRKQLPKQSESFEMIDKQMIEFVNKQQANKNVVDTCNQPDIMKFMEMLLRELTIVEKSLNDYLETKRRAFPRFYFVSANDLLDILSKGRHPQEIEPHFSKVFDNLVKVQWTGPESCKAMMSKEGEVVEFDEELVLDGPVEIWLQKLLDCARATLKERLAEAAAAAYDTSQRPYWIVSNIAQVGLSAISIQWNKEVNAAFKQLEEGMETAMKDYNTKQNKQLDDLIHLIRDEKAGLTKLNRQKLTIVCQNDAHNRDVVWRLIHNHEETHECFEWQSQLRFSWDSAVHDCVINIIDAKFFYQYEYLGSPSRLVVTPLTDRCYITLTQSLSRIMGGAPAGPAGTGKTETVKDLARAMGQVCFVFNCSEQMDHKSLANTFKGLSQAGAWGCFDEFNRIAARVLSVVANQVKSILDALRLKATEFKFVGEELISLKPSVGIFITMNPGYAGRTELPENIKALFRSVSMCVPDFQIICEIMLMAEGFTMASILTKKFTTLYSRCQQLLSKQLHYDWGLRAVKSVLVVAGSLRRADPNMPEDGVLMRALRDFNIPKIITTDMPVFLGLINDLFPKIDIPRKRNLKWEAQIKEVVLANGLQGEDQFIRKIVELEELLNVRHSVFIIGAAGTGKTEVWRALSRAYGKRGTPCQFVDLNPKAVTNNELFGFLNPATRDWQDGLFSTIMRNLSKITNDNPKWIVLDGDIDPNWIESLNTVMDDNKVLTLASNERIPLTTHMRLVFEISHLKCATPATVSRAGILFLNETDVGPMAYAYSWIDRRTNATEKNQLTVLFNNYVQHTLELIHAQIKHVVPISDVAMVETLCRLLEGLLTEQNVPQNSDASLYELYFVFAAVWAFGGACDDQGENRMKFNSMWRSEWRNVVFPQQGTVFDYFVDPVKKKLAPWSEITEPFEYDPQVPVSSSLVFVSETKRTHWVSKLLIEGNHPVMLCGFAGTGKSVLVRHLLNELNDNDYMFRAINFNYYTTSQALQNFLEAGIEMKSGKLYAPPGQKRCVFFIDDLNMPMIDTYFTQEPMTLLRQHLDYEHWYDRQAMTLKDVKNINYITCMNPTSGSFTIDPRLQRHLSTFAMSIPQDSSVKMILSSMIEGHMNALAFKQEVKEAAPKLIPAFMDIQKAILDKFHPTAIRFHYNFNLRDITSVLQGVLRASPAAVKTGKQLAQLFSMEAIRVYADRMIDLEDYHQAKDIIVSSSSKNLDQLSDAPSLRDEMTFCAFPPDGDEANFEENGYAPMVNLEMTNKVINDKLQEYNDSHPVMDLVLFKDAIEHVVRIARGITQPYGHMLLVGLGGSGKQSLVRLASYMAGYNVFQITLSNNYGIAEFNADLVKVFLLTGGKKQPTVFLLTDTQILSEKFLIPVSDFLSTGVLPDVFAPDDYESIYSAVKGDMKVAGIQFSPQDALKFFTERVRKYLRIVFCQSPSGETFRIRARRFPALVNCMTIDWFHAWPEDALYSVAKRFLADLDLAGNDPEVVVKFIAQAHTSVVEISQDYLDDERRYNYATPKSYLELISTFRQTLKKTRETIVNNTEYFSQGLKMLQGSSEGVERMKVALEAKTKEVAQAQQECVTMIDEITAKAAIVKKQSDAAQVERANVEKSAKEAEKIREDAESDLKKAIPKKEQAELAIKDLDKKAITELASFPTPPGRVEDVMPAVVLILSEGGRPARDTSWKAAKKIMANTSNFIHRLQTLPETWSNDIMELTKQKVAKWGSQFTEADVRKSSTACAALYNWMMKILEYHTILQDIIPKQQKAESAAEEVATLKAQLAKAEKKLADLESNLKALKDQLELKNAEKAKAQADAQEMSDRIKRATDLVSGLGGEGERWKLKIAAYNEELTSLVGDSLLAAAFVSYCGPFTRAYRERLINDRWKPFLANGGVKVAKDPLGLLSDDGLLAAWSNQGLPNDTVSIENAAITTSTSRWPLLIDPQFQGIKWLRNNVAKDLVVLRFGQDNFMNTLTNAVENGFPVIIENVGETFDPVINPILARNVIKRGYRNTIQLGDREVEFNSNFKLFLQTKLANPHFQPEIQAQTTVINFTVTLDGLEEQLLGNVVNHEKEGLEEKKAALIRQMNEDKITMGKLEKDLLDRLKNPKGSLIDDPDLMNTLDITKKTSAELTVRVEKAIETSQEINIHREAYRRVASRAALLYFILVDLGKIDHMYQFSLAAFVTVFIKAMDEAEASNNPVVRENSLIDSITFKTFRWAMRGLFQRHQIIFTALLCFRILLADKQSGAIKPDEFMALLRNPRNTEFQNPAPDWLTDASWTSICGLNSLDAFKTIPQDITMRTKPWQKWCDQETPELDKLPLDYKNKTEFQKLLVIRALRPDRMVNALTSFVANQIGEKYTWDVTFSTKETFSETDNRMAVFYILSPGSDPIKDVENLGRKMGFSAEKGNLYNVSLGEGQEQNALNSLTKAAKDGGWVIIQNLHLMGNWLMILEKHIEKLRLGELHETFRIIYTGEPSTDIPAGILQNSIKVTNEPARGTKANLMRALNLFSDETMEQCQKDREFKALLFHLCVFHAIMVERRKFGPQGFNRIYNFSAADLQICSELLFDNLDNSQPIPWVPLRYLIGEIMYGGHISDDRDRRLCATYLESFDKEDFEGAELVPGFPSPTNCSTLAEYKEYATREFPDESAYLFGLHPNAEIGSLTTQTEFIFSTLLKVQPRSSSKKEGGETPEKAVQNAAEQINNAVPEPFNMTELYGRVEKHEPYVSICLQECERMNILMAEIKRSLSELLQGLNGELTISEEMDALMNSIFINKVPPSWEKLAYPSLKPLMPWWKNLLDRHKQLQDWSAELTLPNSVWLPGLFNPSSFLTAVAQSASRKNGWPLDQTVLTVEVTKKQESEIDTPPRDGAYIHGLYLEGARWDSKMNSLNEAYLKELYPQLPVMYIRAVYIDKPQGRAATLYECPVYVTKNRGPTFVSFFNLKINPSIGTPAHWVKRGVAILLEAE

The substances below were run against HA-TvActin (Trichomonas vaginalis) (UniProt P90623) (assay: affinity purification with mass spectrometry; HA-TvActin immunoprecipitated with anti-HA agarose beads from lysate of transgenic TH17 trophozoites (1% Triton X-100, 5 mM EDTA in TBS, 4°C overnight); SDS-PAGE, LC-MS/MS, label-free emPAI).
In the case of “Pyruvate:ferredoxin oxidoreductase A (from UniProt Q27088) (enzyme)”, the binding was “binds”.
In the case of “Vacuolar proton pump subunit B (from UniProt A2ES57 1-496)”, the binding was “binds”.
“Dynein heavy chain family protein (TVAG_006480) (from UniProt A2E755 1-4660)” was tested, and the binding was “binds”.
Actin (fragment) (from UniProt A2GKR2) was tested, and the binding was “binds”.
With “Dynein heavy chain family protein (TVAG_497260) (from UniProt A2EGW8 1-4493)” the binding was “binds”.
